Reference: article PMC6192633
No constants are given. Whether binding was seen depends on the method and setting. In cells and extracts the contact can be indirect. Binding can be weak; no strength is given. For some of these results: Tags and fused reporters may be left off the sequences shown.

Amino acid sequences for entries named in this document (tags omitted). A change or cut given only in a name is not applied to a line headed by its entry. Residues count along the entry.
UniProt Q9QUK6, residues 26-835: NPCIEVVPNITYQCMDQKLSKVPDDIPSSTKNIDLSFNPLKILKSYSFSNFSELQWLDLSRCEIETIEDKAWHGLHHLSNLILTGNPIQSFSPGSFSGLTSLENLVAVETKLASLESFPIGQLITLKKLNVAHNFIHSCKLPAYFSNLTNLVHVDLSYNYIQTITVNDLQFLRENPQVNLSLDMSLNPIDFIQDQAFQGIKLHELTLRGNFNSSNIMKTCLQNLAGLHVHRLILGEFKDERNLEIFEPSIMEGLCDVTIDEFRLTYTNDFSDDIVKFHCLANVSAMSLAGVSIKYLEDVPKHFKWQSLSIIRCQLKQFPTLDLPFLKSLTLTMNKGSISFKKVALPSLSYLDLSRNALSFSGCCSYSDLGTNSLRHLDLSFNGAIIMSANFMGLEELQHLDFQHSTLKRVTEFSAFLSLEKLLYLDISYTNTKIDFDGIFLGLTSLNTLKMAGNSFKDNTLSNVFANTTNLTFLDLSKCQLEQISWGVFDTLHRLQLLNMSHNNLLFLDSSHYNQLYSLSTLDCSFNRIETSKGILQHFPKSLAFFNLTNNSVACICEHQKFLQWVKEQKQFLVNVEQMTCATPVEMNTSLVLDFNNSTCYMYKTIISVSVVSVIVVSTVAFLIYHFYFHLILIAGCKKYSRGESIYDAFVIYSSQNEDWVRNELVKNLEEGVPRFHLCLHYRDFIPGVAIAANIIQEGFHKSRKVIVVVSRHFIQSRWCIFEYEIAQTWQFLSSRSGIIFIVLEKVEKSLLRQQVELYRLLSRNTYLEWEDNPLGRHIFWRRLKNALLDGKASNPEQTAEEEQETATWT
UniProt Q9NR96, residues 26-1032: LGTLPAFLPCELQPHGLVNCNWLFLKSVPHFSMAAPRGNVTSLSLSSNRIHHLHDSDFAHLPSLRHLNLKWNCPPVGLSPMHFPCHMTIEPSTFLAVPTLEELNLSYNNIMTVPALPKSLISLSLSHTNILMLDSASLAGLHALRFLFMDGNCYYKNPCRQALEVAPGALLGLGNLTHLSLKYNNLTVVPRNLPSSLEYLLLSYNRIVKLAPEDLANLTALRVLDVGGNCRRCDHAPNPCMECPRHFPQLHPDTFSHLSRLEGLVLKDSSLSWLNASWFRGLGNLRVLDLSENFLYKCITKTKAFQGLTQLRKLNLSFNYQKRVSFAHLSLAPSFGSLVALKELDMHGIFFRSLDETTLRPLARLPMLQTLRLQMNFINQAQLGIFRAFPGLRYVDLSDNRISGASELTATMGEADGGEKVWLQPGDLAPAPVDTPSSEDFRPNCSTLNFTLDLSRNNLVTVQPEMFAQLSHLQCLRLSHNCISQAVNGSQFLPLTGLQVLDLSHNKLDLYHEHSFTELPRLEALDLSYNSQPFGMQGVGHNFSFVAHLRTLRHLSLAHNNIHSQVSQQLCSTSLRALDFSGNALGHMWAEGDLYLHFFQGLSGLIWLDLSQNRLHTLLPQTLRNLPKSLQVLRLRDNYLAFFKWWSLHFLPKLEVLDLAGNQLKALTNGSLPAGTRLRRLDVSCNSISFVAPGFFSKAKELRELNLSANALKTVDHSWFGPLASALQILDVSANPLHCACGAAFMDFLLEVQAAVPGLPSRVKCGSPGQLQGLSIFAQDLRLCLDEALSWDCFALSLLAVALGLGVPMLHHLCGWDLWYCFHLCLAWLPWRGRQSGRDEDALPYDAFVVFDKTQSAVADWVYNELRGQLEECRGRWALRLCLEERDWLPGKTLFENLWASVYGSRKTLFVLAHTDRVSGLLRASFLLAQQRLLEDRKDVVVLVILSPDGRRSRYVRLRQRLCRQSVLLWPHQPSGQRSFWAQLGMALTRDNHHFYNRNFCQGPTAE
UniProt Q91WD0: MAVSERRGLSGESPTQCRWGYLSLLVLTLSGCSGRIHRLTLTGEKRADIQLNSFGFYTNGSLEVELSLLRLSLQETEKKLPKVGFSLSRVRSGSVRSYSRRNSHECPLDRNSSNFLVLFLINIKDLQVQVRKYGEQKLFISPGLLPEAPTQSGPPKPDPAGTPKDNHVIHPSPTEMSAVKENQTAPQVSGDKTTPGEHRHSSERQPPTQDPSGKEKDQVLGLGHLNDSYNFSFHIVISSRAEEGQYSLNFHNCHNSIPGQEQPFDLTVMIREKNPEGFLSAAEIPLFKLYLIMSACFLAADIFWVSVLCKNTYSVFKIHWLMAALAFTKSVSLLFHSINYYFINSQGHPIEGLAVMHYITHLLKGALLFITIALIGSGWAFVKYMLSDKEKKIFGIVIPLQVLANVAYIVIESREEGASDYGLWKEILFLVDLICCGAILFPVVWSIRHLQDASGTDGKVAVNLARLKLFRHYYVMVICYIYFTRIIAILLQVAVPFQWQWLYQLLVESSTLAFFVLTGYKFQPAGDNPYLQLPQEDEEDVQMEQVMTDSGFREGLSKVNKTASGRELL

Key:
Assay in all cases: co-IP; HEK293 or HEK293T cells co-transfected with Flag- and HA-tagged proteins; lysis buffer 10 mM Tris pH 7.4, 100 mM NaCl, 1 mM EDTA, 1 mM EGTA, 1% Triton X-100, 10% glycerol, 0.1% SDS, 0.5% deoxycholate; anti-flag M2 agarose 2 h at 4°C; blots with anti-HA and anti-Flag (Fig 6A: cells stimulated with LPS for different times, with or without GPR108, blot with anti-MyD88)
Flag-tagged TLR3 (mouse) = biological target: T1, Flag-tagged TLR3 (mouse) (UniProt Q99MB1)
T1 sequence: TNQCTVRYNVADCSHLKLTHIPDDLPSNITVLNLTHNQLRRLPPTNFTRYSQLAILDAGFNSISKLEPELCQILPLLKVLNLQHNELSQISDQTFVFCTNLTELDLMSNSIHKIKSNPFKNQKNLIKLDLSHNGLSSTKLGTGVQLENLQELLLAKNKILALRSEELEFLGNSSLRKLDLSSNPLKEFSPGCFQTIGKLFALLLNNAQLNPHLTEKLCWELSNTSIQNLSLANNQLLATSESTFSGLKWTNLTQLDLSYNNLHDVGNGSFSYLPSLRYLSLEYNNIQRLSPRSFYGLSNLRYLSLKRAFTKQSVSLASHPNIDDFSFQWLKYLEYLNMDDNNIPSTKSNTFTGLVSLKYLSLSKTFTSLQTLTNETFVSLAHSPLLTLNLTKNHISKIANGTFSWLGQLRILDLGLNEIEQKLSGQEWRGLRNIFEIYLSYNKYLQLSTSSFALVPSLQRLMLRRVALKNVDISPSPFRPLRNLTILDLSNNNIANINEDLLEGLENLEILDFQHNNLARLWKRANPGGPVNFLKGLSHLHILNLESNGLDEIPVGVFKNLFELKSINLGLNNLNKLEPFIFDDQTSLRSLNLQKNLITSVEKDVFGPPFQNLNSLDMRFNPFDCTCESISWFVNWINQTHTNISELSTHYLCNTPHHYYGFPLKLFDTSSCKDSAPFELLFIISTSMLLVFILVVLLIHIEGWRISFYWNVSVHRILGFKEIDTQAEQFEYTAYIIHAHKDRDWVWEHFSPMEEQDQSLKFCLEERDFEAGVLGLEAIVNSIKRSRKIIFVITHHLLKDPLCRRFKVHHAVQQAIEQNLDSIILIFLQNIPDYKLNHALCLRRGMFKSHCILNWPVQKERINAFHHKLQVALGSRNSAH

Flag-tagged TLR4 (mouse) = Flag-tagged TLR4 (mouse) (UniProt Q9QUK6)
Flag-tagged TLR7 (mouse) = biological target: T2, Flag-tagged TLR7 (mouse) (UniProt P58681)
T2 sequence: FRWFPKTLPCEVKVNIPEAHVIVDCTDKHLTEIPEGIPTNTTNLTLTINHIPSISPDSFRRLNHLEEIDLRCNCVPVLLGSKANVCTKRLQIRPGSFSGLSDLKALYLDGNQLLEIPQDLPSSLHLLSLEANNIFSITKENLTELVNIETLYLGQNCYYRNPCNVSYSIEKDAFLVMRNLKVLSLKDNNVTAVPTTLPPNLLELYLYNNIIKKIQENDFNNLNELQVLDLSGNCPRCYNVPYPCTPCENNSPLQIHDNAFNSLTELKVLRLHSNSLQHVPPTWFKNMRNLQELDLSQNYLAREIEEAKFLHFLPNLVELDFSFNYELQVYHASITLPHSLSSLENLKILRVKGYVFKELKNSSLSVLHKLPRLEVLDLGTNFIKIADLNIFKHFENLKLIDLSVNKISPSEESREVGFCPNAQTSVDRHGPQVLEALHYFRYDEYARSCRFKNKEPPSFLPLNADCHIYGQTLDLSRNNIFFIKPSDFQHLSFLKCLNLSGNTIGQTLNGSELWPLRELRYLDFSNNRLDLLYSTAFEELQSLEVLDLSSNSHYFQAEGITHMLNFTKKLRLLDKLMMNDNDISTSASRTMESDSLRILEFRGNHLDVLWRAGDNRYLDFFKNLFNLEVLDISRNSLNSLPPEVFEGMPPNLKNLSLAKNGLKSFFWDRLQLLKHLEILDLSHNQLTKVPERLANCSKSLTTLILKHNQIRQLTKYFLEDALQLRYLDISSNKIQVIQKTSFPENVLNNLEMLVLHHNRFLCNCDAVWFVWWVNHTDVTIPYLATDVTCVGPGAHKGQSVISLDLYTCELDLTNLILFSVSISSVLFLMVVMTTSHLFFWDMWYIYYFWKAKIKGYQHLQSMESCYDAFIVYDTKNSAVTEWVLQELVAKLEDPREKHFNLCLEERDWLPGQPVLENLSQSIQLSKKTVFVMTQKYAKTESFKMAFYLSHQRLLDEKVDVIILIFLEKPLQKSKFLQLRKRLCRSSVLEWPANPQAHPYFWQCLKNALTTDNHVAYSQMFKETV

Flag-tagged TLR9 = Flag-tagged TLR9 (UniProt Q9NR96)

Measured: binding

GPR108 mutant m2-HA (from UniProt Q91WD0)
binds: all assays above
